Measurements taken from patent US20240390464A1, “Treatment of Adults With Overweight or Obesity With or Without Weight-Related Comorbidities” (Carmot Therapeutics Inc., priority 2023, published 2024).
At least one peptide structure holds a part that was inferred or is arguable (an end, a ring closure or a residue). At least one structure is not confirmed: it was looked up by name or label, or the drawing left a doubt. Numbered stars: 1 amine (or outer) side, 2 acyl side, 3 side chain; on linkers, the order of the positions; unused ones are H or OH. Square brackets hold non-standard residues; d marks the D form. Side chains are listed from the residue outwards. Peptide text beside a SMILES is read from it. * marks the point of attachment. Isobutyryl(2-(3-CN-5-F-Ph)) = CC(C)(C(=O)*)c1cc(F)cc(C#N)c1; C20 diacid = O=C(O)CCCCCCCCCCCCCCCCCCC(=O)*; γGlu = O=C(O)[C@H](CCC(=O)[*:2])N[*:1]; AEEA = NCCOCCOCC(=O)O; Aib = CC(C)(N)C(=O)O; βAla = NCCC(=O)O

Experiments:
Format in all cases: in vivo, human
[1] = Phase 1 MAD Cohorts 6-8: fasting glucose homeostasis and OGTT; conditions: for HOMA-IR (Day 23): geometric mean
[2] = Phase 1 MD Cohorts 11 and 12: body weight
[3] = Phase 1 MD Cohorts 11 and 12: waist circumference; conditions: for waist circumference reduction: By Week 12
[4] = Phase 1 MD Cohorts 11 and 12: HbA1c and glycemic status
[5] = after four doses, Cohort 8, 5/8/12/12 mg

## CC[C@H](C)[C@H](NC(=O)[C@H](CC(C)C)NC(=O)[C@H](Cc1c[nH]c2ccccc12)NC(=O)[C@H](CCC(N)=O)NC(=O)[C@@H](NC(=O)[C@H](Cc1ccccc1)NC(=O)[C@H](C)NC(=O)[C@H](CCCCNC(=O)COCCOCCNC(=O)COCCOCCNC(=O)CC[C@H](NC(=O)CCCCCCCCCCCCCCCCCCC(=O)O)C(=O)O)NC(=O)[C@H](CCC(N)=O)NC(=O)[C@H](C)NC(=O)[C@@H](NC(=O)[C@H](CCCCN)NC(=O)[C@H](CC(=O)O)NC(=O)[C@H](CC(C)C)NC(=O)C(C)(C)NC(=O)[C@@H](NC(=O)[C@H](CO)NC(=O)[C@H](Cc1ccc(O)cc1)NC(=O)[C@H](CC(=O)O)NC(=O)[C@H](CO)NC(=O)[C@@H](NC(=O)[C@H](Cc1ccccc1)NC(=O)[C@@H](NC(=O)CNC(=O)[C@H](CCC(=O)O)NC(=O)CCNC(=O)C(C)(C)c1cc(F)cc(C#N)c1)[C@@H](C)O)[C@@H](C)O)[C@@H](C)CC)[C@@H](C)CC)C(C)C)C(=O)N[C@@H](C)C(=O)NCC(=O)NCC(=O)N1CCC[C@H]1C(=O)N[C@@H](CO)C(=O)N[C@@H](CO)C(=O)NCC(=O)N[C@@H](C)C(=O)N1CCC[C@H]1C(=O)N1CCC[C@H]1C(=O)N1CCC[C@H]1C(=O)N[C@@H](CO)C(N)=O [CT-388] ({Isobutyryl(2-(3-CN-5-F-Ph))-βAla}-EGTFTSDYSI[Aib]LDKIAQK([AEEA-AEEA-γGlu-C20 diacid])AFVQWLIAGGPSSGAPPPS-NH2)
[1]; after four doses, Cohort 7, 5/5/8/12 mg
  fasting insulin, placebo-adjusted difference: 2 mIU/L
[1]; [5]
  HOMA-IR, placebo-adjusted difference: −1
  fasting C-Peptide, placebo-adjusted difference: -0.9 ng/mL
  fasting glucose, placebo-adjusted difference: -15 mg/dL
  fasting insulin, placebo-adjusted difference: −4 mIU/L
[1]; Cohort 6, 5/5/5/7.5 mg
  HOMA-IR (Day 23): 1.75
[1]; Cohort 7, 5/5/8/12 mg
  HOMA-IR (Day 23): 2.37
[1]; Cohort 8, 5/8/12/12 mg
  HOMA-IR (Day 23): 1.15
[2]; At week 12, CT-388 8 mg (n = 11)
  % change in body weight, LSM ± SE (MMRM): −10.2 ± 1.3%
[2]; At week 12, CT-388 22 mg (n = 23)
  % change in body weight, LSM ± SE (MMRM): −12.4% ± 0.9%
[2]; At week 12, Cohort 12, actual final dose 12 mg (deviated from planned titration path)
  % change in body weight by actual final dose (MMRM): −13.10%
[2]; At week 12, Cohort 12, actual final dose 22 mg
  % change in body weight by actual final dose (MMRM): −12.20%
[2]; At week 24, CT-388 22 mg (n = 20)
  % change in body weight, LSM ± SE (MMRM): −18.9 ± 1.1%%
[2]; At week 24, Cohort 12, actual final dose 12 mg (deviated from planned titration path)
  % change in body weight by actual final dose (MMRM): −20.70%
[2]; At week 24, Cohort 12, actual final dose 22 mg
  % change in body weight by actual final dose (MMRM): −18.30%
[2]; Week 12 (w.o. Subject 105-136), 8 mg vs Placebo, adjusted for baseline weight and sex
  Placebo-Adjusted LSMs of % Change in Weight Loss: −10.9%
[2]; Week 12 (w.o. Subject 105-136), 8 mg vs Placebo, baseline weight covariate
  Placebo-Adjusted LSMs of % Change in Weight Loss: −10.4%
[2]; Week 12 (w.o. Subject 105-136), 22 mg vs. Placebo, adjusted for baseline weight and sex
  Placebo-Adjusted LSMs of % Change in Weight Loss: −13%
[2]; Week 12 (w.o. Subject 105-136), 22 mg vs. Placebo, baseline weight covariate
  Placebo-Adjusted LSMs of % Change in Weight Loss: −12.6%
[2]; Week 12, 8 mg vs Placebo, adjusted for baseline weight and sex
  Placebo-Adjusted LSMs of % Change in Weight Loss: −9.6%
[2]; Week 12, 22 mg vs. Placebo, adjusted for baseline weight and sex
  Placebo-Adjusted LSMs of % Change in Weight Loss: −11.8%
[2]; Week 12, CT-388 8 mg SC QW vs Placebo (Cohort 11), baseline weight covariate
  Placebo-Adjusted LSMs of % Change in Weight Loss: −9.3%
[2]; Week 12, CT-388 22 mg SC QW vs. Placebo (Cohort 12), baseline weight covariate
  Placebo-Adjusted LSMs of % Change in Weight Loss: −11.5%
[2]; Week 24, 22 mg vs. Placebo, adjusted for baseline weight and sex
  Placebo-Adjusted LSMs of % Change in Weight Loss: −20.7%
[2]; Week 24, 22 mg vs. Placebo, baseline weight covariate
  Placebo-Adjusted LSMs of % Change in Weight Loss: −18.8%
[2]; week 24, 22 mg SC QW, adults with obesity
  mean placebo-adjusted weight loss: 18.8%
[2]; week 24, CT-388 22 mg
  participants achieving weight loss of >5%: 100%
  participants achieving weight loss of >10%: 85%
  participants achieving weight loss of >15%: 70%
  participants achieving weight loss of >20%: 45%
[3]; CT-388 8 mg
  waist circumference reduction: about 10 cm
[3]; CT-388 22 mg
  waist circumference reduction: about 10 cm
[3]; Week 12 (w.o. Subject 105-136), 8 mg vs Placebo
  Placebo-adjusted LSMs of Change in Waist Circumference: −8.6 cm
[3]; Week 12 (w.o. Subject 105-136), 22 mg vs. Placebo
  Placebo-adjusted LSMs of Change in Waist Circumference: −8 cm
[3]; Week 12, 8 mg vs Placebo
  Placebo-adjusted LSMs of Change in Waist Circumference: −7.8 cm
[3]; Week 12, 22 mg vs. Placebo
  Placebo-adjusted LSMs of Change in Waist Circumference: −7.3 cm
[3]; Week 24, 22 mg vs. Placebo
  Placebo-adjusted LSMs of Change in Waist Circumference: −13.4 cm
[3]; week 24, CT-388 22 mg
  decrease in waist circumference: −13.7 cm
[4]; Cohort 12, 22 mg, 15 normoglycemic at baseline
  # Normoglycemic at Week 24: 13 (2 had missing data)
[4]; Cohort 12, 22 mg, normoglycemic baseline
  Response (normoglycemic at Week 24): 87%
[4]; Cohort 12, 22 mg, prediabetic baseline
  Response (normoglycemic at Week 24): 100%
[4]; Week 12, 8 mg vs Placebo
  PBO-adjusted LSMs of Change in HbA1C (%): −0.3%
[4]; Week 12, 22 mg vs. Placebo
  PBO-adjusted LSMs of Change in HbA1C (%): −0.4%
[4]; Week 24, 22 mg vs. Placebo
  PBO-adjusted LSMs of Change in HbA1C (%): −0.4%
[4]; week 24, CT-388 22 mg (37.5% at baseline)
  participants who completed treatment that were pre-diabetic/diabetic: zero
